Measurements taken from patent US20190177366A1.
No constants are given. Whether binding was seen depends on the method and setting. Binding calls can cover weak binding; strength is not graded here.

Protein sequences, listed by entry. Tags and fused reporters are not part of them. Lines headed by an entry give the natural chain unless they say otherwise; changes in a name come on top.
UniProt Q8NBP7: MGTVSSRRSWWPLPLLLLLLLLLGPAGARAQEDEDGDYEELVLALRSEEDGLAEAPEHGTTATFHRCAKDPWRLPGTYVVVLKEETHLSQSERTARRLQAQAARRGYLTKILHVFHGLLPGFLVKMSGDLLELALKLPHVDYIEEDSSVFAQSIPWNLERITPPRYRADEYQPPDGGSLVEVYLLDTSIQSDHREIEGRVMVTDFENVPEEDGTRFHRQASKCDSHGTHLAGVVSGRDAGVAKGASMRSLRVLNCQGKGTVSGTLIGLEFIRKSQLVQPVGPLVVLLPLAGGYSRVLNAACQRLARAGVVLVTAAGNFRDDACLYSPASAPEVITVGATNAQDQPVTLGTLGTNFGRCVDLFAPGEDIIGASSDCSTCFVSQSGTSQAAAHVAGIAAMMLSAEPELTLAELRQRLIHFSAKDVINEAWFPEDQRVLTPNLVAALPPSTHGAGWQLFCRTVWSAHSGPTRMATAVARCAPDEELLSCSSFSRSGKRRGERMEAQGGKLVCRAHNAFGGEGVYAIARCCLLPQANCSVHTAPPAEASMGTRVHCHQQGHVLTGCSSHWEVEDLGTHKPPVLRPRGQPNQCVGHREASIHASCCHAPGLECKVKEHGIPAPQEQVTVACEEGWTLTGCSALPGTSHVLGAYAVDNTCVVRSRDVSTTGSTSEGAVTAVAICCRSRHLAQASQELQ

Assays:
PCSK9Δhelix (human) [1] = biological target: PCSK9Δhelix (human) (UniProt Q8NBP7); experiment: phage spot ELISA
PCSK9Δhelix (human) [2] = biological target: PCSK9Δhelix (human) (UniProt Q8NBP7); experiment: SPR
PCSK9Δhelix (human) [3] = biological target: PCSK9Δhelix (human) (UniProt Q8NBP7); experiment: TR-FRET competition, Ab20 as competitor

Binder	binding (PCSK9Δhelix (human) [1])	binding (PCSK9Δhelix (human) [3])	also measured
SGSYRGAWSVFGGSTD [SEQ ID NO 372]	binds		
SGDTRSQLSH [SEQ ID NO 376]	binds		
SGVCSDHYIGGKEVRC [SEQ ID NO 378]	binds		
SGHASKGMVLSG [SEQ ID NO 381]	binds		
SGGSIPWNLERITPPR [SEQ ID NO 382]	binds		
TVFTSWEEYLDWVGSGCWNLKRIGSQGC (N-terminal acetyl; C-terminal amide; disulfide C17-C28) [Compound 2]			binding (PCSK9Δhelix (human) [2]): binds
CRLPWNLQRIGLPC (N-terminal acetyl; C-terminal amide; disulfide-constrained macrocycle) [Compound 32]		binds	binding (PCSK9Δhelix (human) [2]): binds
CRLPWNLARIGLPC (N-terminal acetyl; C-terminal amide; disulfide-cyclized) [Compound 73]			binding (PCSK9Δhelix (human) [2]): binds
TVFTSWEEYLDWVGSGKLWNLGR (N-terminal acetyl; C-terminal amide) [Compound 4]		binds	
TVFTSWEEYLDWVGSGKLWNL (N-terminal acetyl; C-terminal amide) [Compound 6]		binds	
TVFTSWEEYLDWVGSGKLWN (N-terminal acetyl; C-terminal amide) [Compound 7]		binds	
TVFTSWEEYLDWVGSGGCRLPWNLQRIGLPC (N-terminal acetyl; C-terminal amide; disulfide-linked extension) [Compound 25]		binds	
TVFTSWEEYLDWVGSGGCFLPWNLQRIGLLC (N-terminal acetyl; C-terminal amide; disulfide-linked extension) [Compound 38]		binds	
TVFTSWEEYLDWVGSGGCWNLKRIGSQGC (N-terminal acetyl; C-terminal amide; disulfide-linked extension) [Compound 14]		binds	
DLMPWNLVRIGLLR (N-terminal acetyl; C-terminal amide) [Compound 35]		binds	
CRLPWNLKRIGLPC (N-terminal acetyl; C-terminal amide; disulfide-cyclized) [Compound 67]		binds	

Now from value to binder, other results behind:

binding (PCSK9Δhelix (human) [1])	binding (PCSK9Δhelix (human) [3])	Binder	also measured
binds		SGEHQFYSYRGVDVYR [SEQ ID NO 370]	
binds		SGACLNHFVSGNMIRC [SEQ ID NO 371]	
binds		SGCWTYLRGGCSVT [SEQ ID NO 373]	
binds		SGTPEMPAML [SEQ ID NO 374]	
binds		SGLAPTVSDS [SEQ ID NO 375]	
binds		SGAGKLDLSG [SEQ ID NO 377]	
binds		SGNALWNHDRLT [SEQ ID NO 379]	
binds		SGRNGSGYINRGIEIW [SEQ ID NO 380]	
	binds	TVFTSWEEYLDWVGSGKLWNLGRV (N-terminal acetyl; C-terminal amide) [Compound 1]	
	binds	TVFTSWEEYLDWVGGSGCWNLKRIGSQGC (N-terminal acetyl; C-terminal amide; disulfide-linked extension) [Compound 13]	
	binds	MCLWNLKRIGSQCEY (N-terminal acetyl; C-terminal amide; disulfide-cyclized) [Compound 63]	
